The chains behind the UniProt entries cited, without tags or fusion partners. Where a name states a change or a piece, a line headed by the entry shows the natural chain unless it says otherwise.
UniProt P51450: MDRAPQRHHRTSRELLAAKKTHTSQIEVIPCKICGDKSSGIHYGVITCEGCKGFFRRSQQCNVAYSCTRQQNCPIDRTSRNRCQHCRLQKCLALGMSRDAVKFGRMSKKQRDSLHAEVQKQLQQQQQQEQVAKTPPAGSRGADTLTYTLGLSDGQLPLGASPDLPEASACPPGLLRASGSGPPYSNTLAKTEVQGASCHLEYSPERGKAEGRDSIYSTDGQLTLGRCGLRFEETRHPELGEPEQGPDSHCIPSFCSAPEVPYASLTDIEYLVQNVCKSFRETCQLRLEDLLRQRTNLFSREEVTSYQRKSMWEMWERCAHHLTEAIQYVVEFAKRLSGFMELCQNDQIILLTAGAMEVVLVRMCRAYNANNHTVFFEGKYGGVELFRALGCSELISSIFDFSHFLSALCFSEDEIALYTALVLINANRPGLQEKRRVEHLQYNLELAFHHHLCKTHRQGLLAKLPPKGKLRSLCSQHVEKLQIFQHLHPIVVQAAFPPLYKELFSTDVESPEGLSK

The whole screen tested about 310,000 compounds, of which about 17,000 (5.5%) were called active. The inconclusive results got no clear call from the source; some entries with a clear call stand among them for comparison. Calls come from the whole dose curve; as a rule, active = well fitted inhibition curve with a large enough effect; inconclusive = small, poorly fitted or top-dose-only effect, or effect the other way; inactive = no such curve, though single readings can be large or run the other way. Potencies beside an inconclusive call are fits to weak or partial responses and may not hold up.
What follows are molecules tested against Nuclear receptor ROR-gamma (Mus musculus) (UniProt P51450) (assay: qHTS for inhibitors of ROR gamma transcriptional activity). Conditions: Drosophila S2 Gal4-RORgamma UAS-luciferase reporter, 20 h; series mostly up to 53.6 µM.
How it was run: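 Stable Schneider cell line, Gal4 DNA-binding domain fused to ROR gamma, UAS-luciferase. Cmpd 1 hr RT → CuSO4 700 uM final → 20 hr RT → luciferase reagent 10 min → luminescence.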
With `CCN(CC)C(=O)Oc1nnc(SC(C)C)n1-c1ccc(Cl)cc1` the Potency was inconclusive: 22.4 µM [activator, single point].
In the case of `CC(CCc1ccccc1)NC(=O)c1ccc(NC(=O)c2ccccc2)cc1` (configuration not stated), the Potency is reported as active: 2.82 µM.
In the case of `COc1ccc(NC(=O)c2cc(-c3ccncc3)nc3ccc(Br)cc23)cc1OC`, the Potency is reported as inconclusive: 14.1 µM [inhibitor, single point].
`COc1ccc(C2Nc3ccccc3C(=O)N2Cc2ccco2)cc1COc1ccc(F)cc1` (configuration not stated) was tested, and the Potency was inconclusive: 35.5 µM [inhibitor, single point].
With `COc1ccc(Br)cc1CNC(=O)CCCc1cn(C)c2ccccc12` the Potency was inconclusive: 5.62 µM [activator, partial curve].
With `CCN(CC)S(=O)(=O)c1ccc(C)c(NC(=S)N2CCN(C/C=C/c3ccccc3)CC2)c1` the Potency was active: 12.6 µM.
In the case of `COc1ccc(N2C(=O)CC(Sc3nc(C)c4c(n3)CCCC4)C2=O)cc1` (configuration not stated), the Potency is reported as “inactive”.
With `CCOc1cc(NS(=O)(=O)CC)c(OCC)cc1NC(=O)c1ccco1` the Potency was inconclusive: 22.4 µM [inhibitor, single point].
In the case of `CSc1ccccc1OCc1cc(C(=O)NC(C)Cc2cccc(C)n2)no1` (configuration not stated), the Potency is reported as inconclusive: 10 µM [activator, partial curve, poor fit].
For `O=C1OC2CCC1(c1ccccc1)C2` (configuration not stated), the Potency was inconclusive: 0.0398 µM [activator, full curve, poor fit].
For `O=c1cc(-c2ccccc2O)oc2ccc3ccccc3c12`, the Potency was active: 6.31 µM.
For `O=C(c1ccccc1)c1ccc(N2CCCC2)cc1`, the Potency was inconclusive: 0.562 µM [activator, full curve, poor fit].
For `CCOc1ccc(C2C=C(c3ccc(C)cc3)Nc3ncnn32)cc1` (configuration not stated), the Potency was active: 11.2 µM.
`CCOC(=O)C1(CCOC)CCN(Cc2ccc(C(=O)OC)cc2)CC1` was tested, and the Potency was active: 7.08 µM.
With `C[C@@H]1CC=C[C@H]2[C@H]1C(=O)N(Cc1ccccc1)[C@H]2c1ccc2ccccc2c1Br` the Potency was inconclusive: 35.5 µM [inhibitor, single point].
For `CN(CCc1ccccn1)C(=O)CCC1CCCN(C(=O)c2n[nH]c3c2CCCC3)C1` (configuration not stated), the Potency was inconclusive: 35.5 µM [activator, single point].
`O=C(NC(=S)Nc1ccccn1)c1ccc([N+](=O)[O-])cc1` was tested, and the Potency was active: 5.01 µM.
For `CCCn1c(NC(=O)c2ccccc2)nc2ccccc21`, the Potency was active: 0.794 µM.
`O=C(Nc1nnc(-c2ccncc2)o1)c1ccccc1` was tested, and the Potency was active: 3.16 µM.
For `O=C(c1ccc(O)cc1)c1ccc(C(=O)c2ccc(O)cc2)cc1`, the Potency was inconclusive: 0.631 µM [activator, full curve].
With `C/C(CC1CC(COCC(C)C)OC1=O)=N\NC(N)=S` (configuration not stated) the Potency was inconclusive: 22.4 µM [inhibitor, single point].
For `CCOc1ccc(S(=O)(=O)Nc2cc(S(=O)(=O)N(CC)CC)ccc2N2CCCC2)cc1`, the Potency was inconclusive: 11.2 µM [activator, partial curve].
With `O=[N+]([O-])c1ccc(-c2nnc(-c3ccccc3)c(NCCCO)n2)cc1` the Potency was inconclusive: 6.31 µM [activator, full curve, poor fit].
With `O=C(NCCc1ccc(Cl)cc1)c1ccc(Br)s1` the Potency was inconclusive: 3.16 µM [activator, full curve].
For `COc1ccc(C(=O)CSc2ccccc2C(=O)O)cc1`, the Potency was inconclusive: 11.2 µM [inhibitor, single point].
In the case of `Cc1cccc2cc(CN(Cc3nnnn3C3CCCCC3)C3CCCC3)c3nnnn3c12`, the Potency is reported as inconclusive: 35.5 µM [inhibitor, single point].
`COc1ccccc1NC1=Nc2cccc3cccc1c23` was tested, and the Potency was inconclusive: 12.6 µM [inhibitor, partial curve].
With `CCOc1ccc(-c2n[nH]c(=S)c3ccccc23)cc1` the Potency was active: 7.08 µM.
For `Cc1cccc(NC(=O)Nc2ccc(Cl)c(Cl)c2)n1`, the Potency was inconclusive: 31.6 µM [inhibitor, single point].
For `CC(C)c1cc(C(=O)N/N=C/C=C/c2ccccc2)n[nH]1`, the Potency was inconclusive: 20 µM [inhibitor, single point].
For `COc1ccc(CCNC2=C(Cl)C(=O)N(CCc3ccccc3)C2=O)cc1OC`, the Potency was inconclusive: 12.6 µM [activator, single point].
With `CCN1CCc2c(sc(N)c2C#N)C1` the Potency was “inactive”.
For `O=C1CC(c2ccco2)Cc2nc(Nc3nc(-c4ccccc4)c4ccccc4n3)ncc21` (configuration not stated), the Potency was inconclusive: 11.2 µM [inhibitor, partial curve, poor fit].
In the case of `Cc1ccc(NS(=O)(=O)c2cc([N+](=O)[O-])ccc2NNC(=S)Nc2cc(C)ccc2C)c(C)c1`, the Potency is reported as inconclusive: 25.1 µM [inhibitor, single point].
In the case of `CC(C)Oc1cccc(C(=O)C2CCCN(C(=O)c3cc(C(F)(F)F)[nH]n3)C2)c1` (configuration not stated), the Potency is reported as inconclusive: 17.8 µM [activator, single point].
For `Cc1ccccc1/C=C/c1nc2ccccc2c(=O)[nH]1`, the Potency was inconclusive: 20 µM [inhibitor, single point].
With `COc1ccc(S(=O)(=O)N2CCOC2CNC(=O)C(=O)NCCc2c[nH]c3ccccc23)cc1` (configuration not stated) the Potency was inconclusive: 11.2 µM [activator, partial curve].
`Cc1ccc2nc(/C(C#N)=C\c3ccc(OC(=O)c4cccs4)cc3)[nH]c2c1` was tested, and the Potency was inconclusive: 1.78 µM [inhibitor, full curve].
In the case of `COc1cc(/C=C/c2ccc3cccc(O)c3n2)c(Br)cc1O`, the Potency is reported as active: 2.82 µM.
With `O=C(COc1ccc2c(c1)OCO2)Nc1nccs1` the Potency was active: 10 µM.
With `CCn1c(CNC(=O)COc2ccc(C(C)C)cc2)nnc1SCC(=O)NC1CCCCC1C` (configuration not stated) the Potency was inconclusive: 22.4 µM [activator, partial curve].
With `Cc1cccc(N2CC(C(=O)Nc3nnc(SCC(=O)N4CCOCC4)s3)CC2=O)c1` (configuration not stated) the Potency was “inactive”.
In the case of `CCOC(=O)Cn1c(-c2ccc(Cl)nc2)nc2ccccc21`, the Potency is reported as “inactive”.
`COCCn1c(=S)[nH]c2sc3c(c2c1=O)CCCC3` was tested, and the Potency was active: 3.98 µM.
`COCCNC(=O)CN(Cc1ccc2c(c1)OCO2)C(=O)CCC(=O)Nc1nccs1` was tested, and the Potency was “inactive”.
In the case of `COc1ccc(/C=N/Nc2cc(C)nc(-n3nc(C)cc3C)n2)cc1`, the Potency is reported as active: 0.316 µM.
With `CCc1ccc(S(=O)(=O)c2ccc(-n3nc(C)cc3N)cc2)cc1` the Potency was inconclusive: 31.6 µM [activator, single point].
In the case of `CC1=NN(C(=O)c2ccccc2Cl)C(O)(c2ccccc2)C1` (configuration not stated), the Potency is reported as active: 6.31 µM.
`COc1ccc(C2=NN(C(=O)CSc3nc4ccccc4s3)C(c3ccc(OC)cc3)C2)cc1` (configuration not stated) was tested, and the Potency was inconclusive: 44.7 µM [inhibitor, partial curve, poor fit].
For `COc1ccc(S(=O)(=O)NCc2cccnc2)cc1C(=O)Nc1ccccc1`, the Potency was inconclusive: 25.1 µM [activator, single point].
In the case of `CC(C)(C)C(=O)NC(=S)Nc1ccc(F)cc1`, the Potency is reported as active: 10 µM.
In the case of `COc1ccc(/C=C/C(=O)Nc2cc(C(F)(F)F)ccc2Cl)cc1`, the Potency is reported as “inactive”.
For `Cn1c(NN)nc2sc3c(c2c1=O)CC(C)(C)OC3`, the Potency was active: 1.41 µM.
In the case of `CCOC(=O)c1cnc(-n2cc(C)cn2)nc1Nc1ccccc1OC`, the Potency is reported as inconclusive: 1.78 µM [inhibitor, full curve].
With `COc1ncnc2c1NC1=C(S2)C(=NCCC(=O)O)CC(C)(C)C1` the Potency was inconclusive: 22.4 µM [inhibitor, single point].
`CC(O)CNc1nc2sc3c(c2c(=O)n1CCc1ccccc1)CCCCC3` (configuration not stated) was tested, and the Potency was inconclusive: 14.1 µM [activator, partial curve].
`COc1cc(=O)n(C)c2ccccc12` was tested, and the Potency was active: 12.6 µM.
For `COc1ccc(NC(=O)COC(=O)Cc2ccccc2[N+](=O)[O-])cc1OC`, the Potency was inconclusive: 17.8 µM [activator, single point].
In the case of `Cc1cc(NC(=O)c2ccc(F)cc2F)n(-c2nc3ccccc3[nH]2)n1`, the Potency is reported as active: 1.12 µM.
With `CCc1nc2ccc(C(=O)NCCc3ccccc3OC)cc2nc1CC` the Potency was “inactive”.
In the case of `O=C(Cc1cccc2ccccc12)NCCOc1ccccc1F`, the Potency is reported as “inactive”.
With `Cc1ccc(S(=O)(=O)N2CCCCC2)cc1NC(=O)Cc1c[nH]c2ccccc12` the Potency was inconclusive: 0.891 µM [activator, full curve, poor fit].
With `CCOC(=O)N1CCN(C(=O)CN(c2ccc(OCc3ccccc3)cc2)S(C)(=O)=O)CC1` the Potency was “inactive”.
In the case of `Cc1ccc(NC(=O)CC2SC3=NCCCN3C2=O)c(C)c1` (configuration not stated), the Potency is reported as inconclusive: 20 µM [inhibitor, single point].
`COc1ccc(-n2nc(C(=O)NCC(=O)NCc3ccc(F)cc3)c3ccccc3c2=O)cc1OC` was tested, and the Potency was inconclusive: 2.51 µM [activator, partial curve, poor fit].
`S=C1NC(C23CC4CC(CC(C4)C2)C3)=CC(c2ccc3c(c2)OCO3)N1` (configuration not stated) was tested, and the Potency was active: 0.708 µM.
With `COCCCNS(=O)(=O)c1ccc2c3c(cccc13)C(=O)S2` the Potency was inconclusive: 35.5 µM [activator, single point].
In the case of `COc1ccc(/C=N/Nc2ccccc2C(=O)O)cc1`, the Potency is reported as inconclusive: 10 µM [inhibitor, partial curve, poor fit].
`COC(=O)N1CCC2(CC1)CCN(c1cccc(-c3ccccc3)c1)CC2` was tested, and the Potency was inconclusive: 7.08 µM [activator, full curve].
`Cc1cccc(NC(=S)NCC2CCCO2)c1` (configuration not stated) was tested, and the Potency was inconclusive: 35.5 µM [inhibitor, single point].
For `c1ccc(CNc2cc(-c3cccnc3)ncn2)cc1`, the Potency was “inactive”.
For `COc1cc(C)ccc1OCCOc1cc(C)ccc1Cl`, the Potency was “inactive”.

— PubChem BioAssay AID2551 (National Center for Advancing Translational Sciences (NCATS), 2010)
Note: nearly all actives have a fitted effect of over 60% in size.
Potency is the fitted concentration of half-maximal effect.
